The values that follow come from PMC3868556.

In this series the test system is T1, ComPsub (Neisseria subflava).
T1 sequence (looked up, limits assumed): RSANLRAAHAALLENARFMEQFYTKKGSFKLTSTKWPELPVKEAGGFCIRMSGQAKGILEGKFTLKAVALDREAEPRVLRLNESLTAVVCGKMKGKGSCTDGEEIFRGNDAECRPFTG
In words: competition with a labelled probe. The settings on record: EMSA, 22.5-180 pmol competitor against N16, competed better than SDU; EMSA: native 10% acrylamide, LightShift kit, buffer not stated; recombinant protein; protein details: MBP fusion (pMAL-p2X), MBP removed with factor Xa.

The exact form of at least one protein or probe is not confirmed. Tags and fusion partners may be left off the protein sequences shown.

For the sequence “TGACCAGGCCGTCTGAACAAAC (double strand) [DUSvar1 ds primers, unlabelled competitor]”, the binding result is “binds”.
